Results are given in words; binding and its absence hold for the method and conditions named. Some results given as binding are weak or reduced against the parent protein; the word gives no strength.
Target: Recombinant HIV-1 Tat protein (HIV-1) (UniProt P04608)
Assay: pull-down; both purified

Sequences of proteins named here, by UniProt entry; tags and fusion partners are left off. A change or cut given only in a name is not applied to a line headed by its entry.
UniProt P04608: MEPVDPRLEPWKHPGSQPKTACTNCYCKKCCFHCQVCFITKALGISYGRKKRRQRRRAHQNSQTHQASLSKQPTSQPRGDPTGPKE
UniProt P50750: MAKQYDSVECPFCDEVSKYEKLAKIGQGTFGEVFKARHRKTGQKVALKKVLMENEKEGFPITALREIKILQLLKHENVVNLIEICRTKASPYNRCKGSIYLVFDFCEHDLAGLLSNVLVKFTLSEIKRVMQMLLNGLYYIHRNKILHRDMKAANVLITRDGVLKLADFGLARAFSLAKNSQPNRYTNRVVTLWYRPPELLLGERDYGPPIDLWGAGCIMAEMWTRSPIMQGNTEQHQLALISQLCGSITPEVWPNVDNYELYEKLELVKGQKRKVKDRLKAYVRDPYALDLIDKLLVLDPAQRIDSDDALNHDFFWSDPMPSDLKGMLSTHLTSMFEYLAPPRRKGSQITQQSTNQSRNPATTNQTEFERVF

Substance | binding
Human recombinant P-TEFb (CDK9/cyclin T1), untreated (from UniProt P50750 1-372; O60563 1-726) (complex) | binds
Recombinant CDK9/cyclin T1 treated with PP1 (from UniProt P50750 1-372; O60563 1-726) (complex) | binds
